These are yes or no findings as the source states them, for the method shown. Binding seen in cells or lysates may run through a third protein. Some results given as binding are weak or reduced against the parent protein; the word gives no strength. Tags and fused reporters may be left off the sequences shown.

Our source for the binding values is article PMC9076019, “HSP90 N‐terminal inhibitors target oncoprotein MORC2 for autophagic degradation and suppress MORC2‐driven breast cancer progression” (Clinical and Translational Medicine, 2022).

The target in this test is Full-length Flag-MORC2 (human) (UniProt Q9Y6X9). Briefly: cross-linking; cytosolic fraction of HEK293T cells transfected with Flag-MORC2 (48 h); chemical cross-linking with 0.05% glutaraldehyde on ice for 5 min; immunoblotting. For orientation: Immunoblotting shows a protein as a band on a membrane.

B1: Full-length Flag-MORC2 (natural protein, human, UniProt Q9Y6X9-1 1-1032, looked up)
chain: MAFTNYSSLNRAQLTFEYLHTNSTTHEFLFGALAELVDNARDADATRIDIYAERREDLRGGFMLCFLDDGAGMDPSDAASVIQFGKSAKRTPESTQIGQYGNGLKSGSMRIGKDFILFTKKEDTMTCLFLSRTFHEEEGIDEVIVPLPTWNARTREPVTDNVEKFAIETELIYKYSPFRTEEEVMTQFMKIPGDSGTLVIIFNLKLMDNGEPELDIISNPRDIQMAETSPEGTKPERRSFRAYAAVLYIDPRMRIFIHGHKVQTKRLSCCLYKPRMYKYTSSRFKTRAEQEVKKAEHVARIAEEKAREAESKARTLEVRLGGDLTRDSRVMLRQVQNRAITLRREADVKKRIKEAKQRALKEPKELNFVFGVNIEHRDLDGMFIYNCSRLIKMYEKVGPQLEGGMACGGVVGVVDVPYLVLEPTHNKQDFADAKEYRHLLRAMGEHLAQYWKDIAIAQRGIIKFWDEFGYLSANWNQPPSSELRYKRRRAMEIPTTIQCDLCLKWRTLPFQLSSVEKDYPDTWVCSMNPDPEQDRCEASEQKQKVPLGTFRKDMKTQEEKQKQLTEKIRQQQEKLEALQKTTPIRSQADLKKLPLEVTTRPSTEEPVRRPQRPRSPPLPAVIRNAPSRPPSLPTPRPASQPRKAPVISSTPKLPALAAREEASTSRLLQPPEAPRKPANTLVKTASRPAPLVQQLSPSLLPNSKSPREVPSPKVIKTPVVKKTESPIKLSPATPSRKRSVAVSDEEEVEEEAERRKERCKRGRFVVKEEKKDSNELSDSAGEEDSADLKRAQKDKGLHVEVRVNREWYTGRVTAVEVGKHVVRWKVKFDYVPTDTTPRDRWVEKGSEDVRLMKPPSPEHQSLDTQQEGGEEEVGPVAQQAIAVAEPSTSECLRIEPDTTALSTNHETIDLLVQILRNCLRYFLPPSFPISKKQLSAMNSDELISFPLKEYFKQYEVGLQNLCNSYQSRADSRAKASEESLRTSERKLRETEEKLQKLRTNIVALLQKVQEDIDINTDDELDAYIEDLITKGD
notes: MORC2, human, full length (residues 1-1032); source: HEK293T, transfected, in cytosolic and nuclear fractions
As for B1, the binding entry is given as “binds weakly”.
